Results published in article PMC10140934 (Molecules, 2023).

Test: peptide synthesis
Settings: whole synthesis

PEPTIDE1{V.A.P.G.V.G}$$$$V2.0
purity (crude or final not stated): 98.8%

HELM strings list residues between dots; [ac] is acetyl, [am] amide, other brackets name non-standard units.
